The exact form of at least one protein or probe is not confirmed.
Biological target: DST (HST1) wild type (UniProt A0A0E0GUL5)
Test: EMSA
Settings: 0.5 ug protein, 2 ng labeled oligo, 5 ug poly(dI-dC), 20 ul, 20 ul reactions, 2 ng labeled DNA, pH and temperature not given (as in Lai et al., 2011), recombinant protein, label: 32P

“GGCTATACTAACCGTGCTGCTAGCCATTAGGCCCAAGTTAGT (double strand) [DST-binding sequence oligo]”: binds.

Source: PMC9927019
